The supplement of paper PMC10849652
The list shows a part of the results.

Sequences of proteins named here, by UniProt entry; tags and fusion partners are left off. A change or cut given only in a name is not applied to a line headed by its entry.
UniProt Q9Y421: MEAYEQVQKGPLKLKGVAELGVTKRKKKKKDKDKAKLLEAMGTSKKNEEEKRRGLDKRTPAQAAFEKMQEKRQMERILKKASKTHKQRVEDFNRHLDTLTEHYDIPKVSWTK
UniProt Q8IW50: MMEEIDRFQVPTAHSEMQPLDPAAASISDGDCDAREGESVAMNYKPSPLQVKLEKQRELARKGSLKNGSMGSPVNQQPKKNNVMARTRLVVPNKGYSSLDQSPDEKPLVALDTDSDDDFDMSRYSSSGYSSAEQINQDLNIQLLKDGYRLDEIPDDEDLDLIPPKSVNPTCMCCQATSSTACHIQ
UniProt Q8WVX9: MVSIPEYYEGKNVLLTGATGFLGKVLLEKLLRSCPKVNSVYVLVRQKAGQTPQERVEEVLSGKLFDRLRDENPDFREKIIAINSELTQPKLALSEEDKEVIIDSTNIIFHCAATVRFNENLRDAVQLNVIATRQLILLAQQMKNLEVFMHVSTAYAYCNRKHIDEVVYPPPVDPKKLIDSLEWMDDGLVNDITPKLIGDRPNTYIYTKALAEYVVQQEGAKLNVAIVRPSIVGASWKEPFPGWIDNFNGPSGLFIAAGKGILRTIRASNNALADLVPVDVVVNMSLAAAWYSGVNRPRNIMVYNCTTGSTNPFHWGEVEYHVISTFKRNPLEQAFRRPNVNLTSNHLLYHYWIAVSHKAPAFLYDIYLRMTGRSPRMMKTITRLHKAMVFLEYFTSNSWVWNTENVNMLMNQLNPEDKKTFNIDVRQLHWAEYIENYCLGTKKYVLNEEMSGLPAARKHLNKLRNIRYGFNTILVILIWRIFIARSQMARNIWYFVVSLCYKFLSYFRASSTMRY
UniProt Q5T1M5: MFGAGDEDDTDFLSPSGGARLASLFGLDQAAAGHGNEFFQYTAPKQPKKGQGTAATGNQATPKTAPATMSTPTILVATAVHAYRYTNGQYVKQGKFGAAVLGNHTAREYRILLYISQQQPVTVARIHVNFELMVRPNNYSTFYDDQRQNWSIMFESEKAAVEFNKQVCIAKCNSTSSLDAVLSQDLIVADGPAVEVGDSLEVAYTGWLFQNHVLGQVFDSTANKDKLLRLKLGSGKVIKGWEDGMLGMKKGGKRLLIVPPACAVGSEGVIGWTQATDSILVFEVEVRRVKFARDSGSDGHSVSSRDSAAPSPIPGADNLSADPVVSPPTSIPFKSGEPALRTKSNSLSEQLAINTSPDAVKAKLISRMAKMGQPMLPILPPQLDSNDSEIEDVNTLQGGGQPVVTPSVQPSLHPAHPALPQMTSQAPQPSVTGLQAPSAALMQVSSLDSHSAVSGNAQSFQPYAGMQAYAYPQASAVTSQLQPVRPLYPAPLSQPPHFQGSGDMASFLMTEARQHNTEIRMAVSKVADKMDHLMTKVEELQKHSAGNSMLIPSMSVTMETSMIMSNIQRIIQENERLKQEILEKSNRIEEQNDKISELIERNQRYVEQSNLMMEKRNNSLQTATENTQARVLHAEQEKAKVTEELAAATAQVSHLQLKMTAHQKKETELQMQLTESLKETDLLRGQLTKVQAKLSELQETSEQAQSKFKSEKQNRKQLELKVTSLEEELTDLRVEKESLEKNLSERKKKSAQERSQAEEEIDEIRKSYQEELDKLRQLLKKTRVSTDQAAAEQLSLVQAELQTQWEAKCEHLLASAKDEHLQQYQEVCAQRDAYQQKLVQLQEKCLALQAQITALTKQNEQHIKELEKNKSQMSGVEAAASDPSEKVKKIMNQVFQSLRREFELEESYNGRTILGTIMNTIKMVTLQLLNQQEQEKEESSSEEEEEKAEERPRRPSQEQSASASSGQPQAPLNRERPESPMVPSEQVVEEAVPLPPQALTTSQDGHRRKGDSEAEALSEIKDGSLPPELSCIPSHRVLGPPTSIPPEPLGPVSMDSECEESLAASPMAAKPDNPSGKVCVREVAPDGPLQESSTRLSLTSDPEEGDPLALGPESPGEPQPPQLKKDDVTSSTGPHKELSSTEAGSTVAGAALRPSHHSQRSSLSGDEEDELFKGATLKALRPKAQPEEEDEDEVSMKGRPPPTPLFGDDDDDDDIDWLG
UniProt Q9H479: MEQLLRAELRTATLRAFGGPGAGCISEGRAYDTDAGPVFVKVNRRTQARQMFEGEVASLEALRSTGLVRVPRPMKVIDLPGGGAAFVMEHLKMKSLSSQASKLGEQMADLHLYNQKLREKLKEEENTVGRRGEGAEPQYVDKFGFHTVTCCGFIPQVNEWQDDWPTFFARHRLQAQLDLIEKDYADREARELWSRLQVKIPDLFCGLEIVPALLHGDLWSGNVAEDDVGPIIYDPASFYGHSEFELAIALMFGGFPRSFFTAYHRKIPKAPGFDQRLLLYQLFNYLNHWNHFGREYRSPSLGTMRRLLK
UniProt Q6PIJ6: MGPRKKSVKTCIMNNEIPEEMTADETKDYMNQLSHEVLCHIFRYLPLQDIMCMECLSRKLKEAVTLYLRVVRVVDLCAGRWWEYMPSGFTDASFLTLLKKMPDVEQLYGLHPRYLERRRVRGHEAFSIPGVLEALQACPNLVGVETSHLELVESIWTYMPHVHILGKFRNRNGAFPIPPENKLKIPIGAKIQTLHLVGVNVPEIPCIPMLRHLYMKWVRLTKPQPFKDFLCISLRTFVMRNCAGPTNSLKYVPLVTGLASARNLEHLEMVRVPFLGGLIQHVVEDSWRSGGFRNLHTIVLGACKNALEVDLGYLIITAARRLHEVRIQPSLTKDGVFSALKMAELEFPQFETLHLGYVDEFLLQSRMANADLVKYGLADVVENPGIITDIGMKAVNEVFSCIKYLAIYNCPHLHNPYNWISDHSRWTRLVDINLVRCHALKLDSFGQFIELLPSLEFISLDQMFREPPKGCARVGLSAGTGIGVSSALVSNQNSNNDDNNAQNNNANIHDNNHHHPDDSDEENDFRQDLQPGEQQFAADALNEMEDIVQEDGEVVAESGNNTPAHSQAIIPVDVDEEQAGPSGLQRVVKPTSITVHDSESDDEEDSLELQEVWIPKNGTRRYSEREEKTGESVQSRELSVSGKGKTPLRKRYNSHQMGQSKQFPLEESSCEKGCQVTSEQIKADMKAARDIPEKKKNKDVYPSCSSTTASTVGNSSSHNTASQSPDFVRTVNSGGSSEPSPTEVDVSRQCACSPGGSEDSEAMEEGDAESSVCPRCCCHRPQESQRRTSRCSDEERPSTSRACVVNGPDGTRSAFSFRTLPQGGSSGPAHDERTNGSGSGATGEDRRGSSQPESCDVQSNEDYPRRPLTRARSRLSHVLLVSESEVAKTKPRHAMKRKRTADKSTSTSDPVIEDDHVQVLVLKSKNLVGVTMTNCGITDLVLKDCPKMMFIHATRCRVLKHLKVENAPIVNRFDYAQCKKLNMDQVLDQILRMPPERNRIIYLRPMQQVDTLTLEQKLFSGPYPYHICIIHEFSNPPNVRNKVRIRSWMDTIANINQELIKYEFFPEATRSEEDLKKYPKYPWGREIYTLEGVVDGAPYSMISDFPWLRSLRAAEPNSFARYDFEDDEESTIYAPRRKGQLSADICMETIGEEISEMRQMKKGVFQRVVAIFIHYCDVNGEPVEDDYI
UniProt Q9Y3D6: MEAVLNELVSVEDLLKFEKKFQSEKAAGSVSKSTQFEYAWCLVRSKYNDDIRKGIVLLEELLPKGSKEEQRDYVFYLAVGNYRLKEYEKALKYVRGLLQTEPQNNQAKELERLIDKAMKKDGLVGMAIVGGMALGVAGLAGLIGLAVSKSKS
UniProt Q00688: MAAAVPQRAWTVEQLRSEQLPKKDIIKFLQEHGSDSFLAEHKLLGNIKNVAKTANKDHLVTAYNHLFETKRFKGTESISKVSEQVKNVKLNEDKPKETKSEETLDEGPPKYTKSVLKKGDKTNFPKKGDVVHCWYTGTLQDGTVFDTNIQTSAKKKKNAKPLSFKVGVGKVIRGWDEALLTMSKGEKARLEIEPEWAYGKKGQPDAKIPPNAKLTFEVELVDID
UniProt O95466, whole entry, looked up: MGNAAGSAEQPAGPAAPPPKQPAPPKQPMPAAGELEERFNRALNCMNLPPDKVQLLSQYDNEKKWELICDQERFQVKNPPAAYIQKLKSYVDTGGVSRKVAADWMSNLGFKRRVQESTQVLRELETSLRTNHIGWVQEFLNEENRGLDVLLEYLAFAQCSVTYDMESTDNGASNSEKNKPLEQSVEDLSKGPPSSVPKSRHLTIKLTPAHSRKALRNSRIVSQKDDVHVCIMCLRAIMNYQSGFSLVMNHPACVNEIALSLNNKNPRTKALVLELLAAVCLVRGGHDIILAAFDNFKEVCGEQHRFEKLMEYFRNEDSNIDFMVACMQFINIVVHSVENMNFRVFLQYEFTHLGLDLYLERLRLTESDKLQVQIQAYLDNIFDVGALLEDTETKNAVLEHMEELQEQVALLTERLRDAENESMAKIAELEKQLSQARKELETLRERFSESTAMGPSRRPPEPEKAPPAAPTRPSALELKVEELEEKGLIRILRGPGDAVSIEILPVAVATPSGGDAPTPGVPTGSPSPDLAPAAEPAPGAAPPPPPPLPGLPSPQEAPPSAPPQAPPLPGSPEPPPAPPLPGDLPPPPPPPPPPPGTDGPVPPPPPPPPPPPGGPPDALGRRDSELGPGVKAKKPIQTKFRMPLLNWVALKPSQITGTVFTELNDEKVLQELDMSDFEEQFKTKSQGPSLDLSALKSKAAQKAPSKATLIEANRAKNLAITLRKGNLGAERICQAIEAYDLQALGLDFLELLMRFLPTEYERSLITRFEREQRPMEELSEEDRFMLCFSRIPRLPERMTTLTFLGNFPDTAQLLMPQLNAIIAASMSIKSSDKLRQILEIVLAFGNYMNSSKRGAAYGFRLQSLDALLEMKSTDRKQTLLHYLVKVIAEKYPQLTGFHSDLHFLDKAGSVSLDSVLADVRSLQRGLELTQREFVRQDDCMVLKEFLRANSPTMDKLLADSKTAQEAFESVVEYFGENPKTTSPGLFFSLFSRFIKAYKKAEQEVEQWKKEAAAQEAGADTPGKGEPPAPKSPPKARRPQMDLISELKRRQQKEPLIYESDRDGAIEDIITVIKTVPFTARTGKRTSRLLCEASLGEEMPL
UniProt P22570: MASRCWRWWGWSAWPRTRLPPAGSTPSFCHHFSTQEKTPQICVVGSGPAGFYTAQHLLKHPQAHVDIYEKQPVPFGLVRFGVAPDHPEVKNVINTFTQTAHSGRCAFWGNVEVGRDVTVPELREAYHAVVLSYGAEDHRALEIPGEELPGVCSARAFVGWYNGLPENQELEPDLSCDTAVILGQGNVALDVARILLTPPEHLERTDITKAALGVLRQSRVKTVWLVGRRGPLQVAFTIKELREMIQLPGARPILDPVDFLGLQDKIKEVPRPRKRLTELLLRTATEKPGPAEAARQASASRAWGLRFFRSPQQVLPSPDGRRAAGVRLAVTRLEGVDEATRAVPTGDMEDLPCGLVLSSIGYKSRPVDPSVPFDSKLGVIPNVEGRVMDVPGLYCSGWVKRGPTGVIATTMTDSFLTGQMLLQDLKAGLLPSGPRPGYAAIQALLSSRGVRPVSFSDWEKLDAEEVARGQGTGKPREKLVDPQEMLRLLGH
UniProt Q8N8J7: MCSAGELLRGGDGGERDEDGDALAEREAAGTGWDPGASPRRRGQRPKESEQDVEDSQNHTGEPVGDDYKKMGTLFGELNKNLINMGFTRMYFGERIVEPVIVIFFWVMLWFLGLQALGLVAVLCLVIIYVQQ
UniProt Q96HJ9: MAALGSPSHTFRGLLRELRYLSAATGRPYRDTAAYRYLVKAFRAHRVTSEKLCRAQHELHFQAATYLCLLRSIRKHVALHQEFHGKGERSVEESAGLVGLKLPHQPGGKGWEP
UniProt P12318: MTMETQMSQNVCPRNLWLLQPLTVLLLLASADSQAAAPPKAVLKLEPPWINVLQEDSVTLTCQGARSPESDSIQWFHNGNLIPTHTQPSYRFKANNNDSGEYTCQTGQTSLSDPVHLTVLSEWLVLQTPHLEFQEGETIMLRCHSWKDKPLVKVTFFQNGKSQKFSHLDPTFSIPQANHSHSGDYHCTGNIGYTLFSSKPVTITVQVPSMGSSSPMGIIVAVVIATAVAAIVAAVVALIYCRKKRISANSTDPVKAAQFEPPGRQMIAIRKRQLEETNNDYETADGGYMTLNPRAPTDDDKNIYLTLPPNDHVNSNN
UniProt P22087: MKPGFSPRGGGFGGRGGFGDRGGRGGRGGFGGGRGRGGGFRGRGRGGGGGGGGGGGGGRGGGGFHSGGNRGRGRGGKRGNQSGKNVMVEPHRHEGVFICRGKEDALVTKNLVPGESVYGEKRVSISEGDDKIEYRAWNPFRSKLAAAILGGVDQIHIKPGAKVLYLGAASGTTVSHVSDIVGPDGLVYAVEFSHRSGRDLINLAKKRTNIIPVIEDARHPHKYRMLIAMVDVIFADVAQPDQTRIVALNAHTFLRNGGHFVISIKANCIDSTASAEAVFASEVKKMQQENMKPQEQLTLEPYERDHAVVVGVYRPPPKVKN
UniProt Q9NWM8: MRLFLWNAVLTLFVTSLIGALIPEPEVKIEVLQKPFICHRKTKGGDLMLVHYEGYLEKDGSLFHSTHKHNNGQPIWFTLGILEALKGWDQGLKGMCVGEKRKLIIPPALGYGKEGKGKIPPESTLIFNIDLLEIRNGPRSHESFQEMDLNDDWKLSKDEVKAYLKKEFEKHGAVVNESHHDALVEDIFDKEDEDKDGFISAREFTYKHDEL

Columns and labels:
Test in all cases: log2 fold change, soluble protein after heating vs DMSO (PISA); higher = thermal stabilisation; K562 cells, 10 uM, 30 min; active = over 0.2 and 3.5 SD of the protein, either way, in both replicates (recomputed)
[1] = compound: CS(=O)(=O)c1ccc(-c2cnc(N)c(C(=O)Nc3ccccc3)n2)cc1
Method in brief: (§1)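 K562 cells (2×10^6 cells/mL) were treated with 10 μM compound for 30 min, and aliquots were heated for 3 min over 48°C-58°C. Pooled aliquots were extracted in PBS with 0.5% NP-40 at 4°C, and the supernatant after 21,000xg for 90 min was measured by TMTpro 16plex LC-MS/MS with channel sums equalised. Reported thermal stability, relative to control samples and from duplicates, is a log2 fold change.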

crizotinib = compound: C[C@@H](Oc1cc(-c2cnn(C3CCNCC3)c2)cnc1N)c1c(Cl)ccc(F)c1Cl [crizotinib]
Method in brief: as §1

[2] = compound: C[C@@H]1COCCN1C2=NC(=NC(=C2)C3(CC3)S(=O)(=O)C)C4=C5C=CNC5=CC=C4
Method in brief: as §1

[3] = compound: C[C@H](C1=CC=C(C=C1)C(=O)NC2=C3C=CNC3=NC=C2)N
Method in brief: as §1

duvelisib = compound: C[C@H](Nc1ncnc2nc[nH]c12)c1cc2cccc(Cl)c2c(=O)n1-c1ccccc1 [duvelisib]
Method in brief: as §1

gandotinib = compound: Cc1cc(Nc2cc(CN3CCOCC3)c3nc(C)c(Cc4ccc(Cl)cc4F)n3n2)n[nH]1 [gandotinib]
Method in brief: as §1

tozasertib = compound: Cc1cc(Nc2cc(N3CCN(C)CC3)nc(Sc3ccc(NC(=O)C4CC4)cc3)n2)n[nH]1 [tozasertib]
Method in brief: as §1

[4] = compound: Cc1cc(SCc2sc(-c3ccc(C(F)(F)F)cc3)nc2C)ccc1OCC(=O)O
Method in brief: as §1

doramapimod = compound: Cc1ccc(-n2nc(C(C)(C)C)cc2NC(=O)Nc2ccc(OCCN3CCOCC3)c3ccccc23)cc1 [doramapimod]
Method in brief: as §1

ispinesib = compound: Cc1ccc(C(=O)N(CCCN)[C@@H](c2nc3cc(Cl)ccc3c(=O)n2Cc2ccccc2)C(C)C)cc1 [ispinesib]
Method in brief: as §1

Measured: log2 fold change

FKBP2 (UniProt P26885)
inactive: [1] 0.032 | crizotinib 0.113 | [2] 0.057 | [3] -0.011 | duvelisib 0.058 | gandotinib 0.018 | tozasertib 0.063 | [4] 0.042 | doramapimod -0.032 | ispinesib 0.036

FAM32A (UniProt Q9Y421)
inactive: [1] 0.101 | crizotinib 0.024 | [2] -0.17 | [3] 0.156 | duvelisib -0.056 | gandotinib -0.023 | tozasertib -0.011 | [4] 0 | doramapimod -0.115 | ispinesib -0.05

FAM219A (UniProt Q8IW50)
inactive: [1] -0.027 | crizotinib 0.067 | [2] -0.212 | [3] -0.062 | duvelisib 0.014 | tozasertib 0 | [4] -0.071 | doramapimod 0.115

FAR1 (UniProt Q8WVX9)
inactive: [1] -0.007 | crizotinib 0.077 | [2] 0.003 | [3] -0.042 | duvelisib 0.061 | gandotinib -0.028 | tozasertib 0.012 | [4] 0.056 | doramapimod -0.003 | ispinesib -0.161

FAM234A (UniProt Q9H0X4)
inactive: [1] 0.009 | crizotinib 0.04 | [2] -0.021 | [3] -0.016 | duvelisib 0.053 | tozasertib -0.045 | [4] -0.025 | doramapimod 0.002 | ispinesib 0.127

FBXL18 isoform 4 (UniProt Q96ME1)
inactive: [1] 0.003 | crizotinib -0.056 | [2] 0.178 | [3] -0.148 | duvelisib 0.032 | gandotinib -0.052 | tozasertib -0.005 | [4] 0.02 | doramapimod -0.006 | ispinesib 0.021

FKBP15 (UniProt Q5T1M5)
inactive: [1] -0.018 | crizotinib -0.118 | [2] -0.026 | [3] 0.046 | duvelisib -0.046 | gandotinib -0.018 | tozasertib 0.042 | [4] 0.085 | doramapimod 0.063 | ispinesib -0.106

FARSB (UniProt Q9NSD9)
inactive: [1] 0.012 | crizotinib 0.016 | [2] 0.036 | [3] 0.022 | duvelisib 0.016 | gandotinib -0.01 | tozasertib 0.015 | [4] 0.053 | doramapimod -0.02 | ispinesib -0.032

Two entries picked at random from those above:
FAR1 (UniProt Q8WVX9)
inactive: [1] -0.007 | crizotinib 0.077 | [2] 0.003 | [3] -0.042 | duvelisib 0.061 | gandotinib -0.028 | tozasertib 0.012 | [4] 0.056 | doramapimod -0.003 | ispinesib -0.161

FBXL18 isoform 4 (UniProt Q96ME1)
inactive: [1] 0.003 | crizotinib -0.056 | [2] 0.178 | [3] -0.148 | duvelisib 0.032 | gandotinib -0.052 | tozasertib -0.005 | [4] 0.02 | doramapimod -0.006 | ispinesib 0.021

Following part

FERMT2 isoform 3 (UniProt Q96AC1)
inactive: [1] -0.005 | crizotinib -0.177 | [2] 0.008 | [3] 0.143 | duvelisib 0.115 | gandotinib 0.308 | tozasertib 0.177 | [4] 0.048 | doramapimod 0.651 | ispinesib 0.006

FN3K (UniProt Q9H479)
inactive: [1] -0.042 | crizotinib 0.033 | [2] 0 | [3] -0.023 | duvelisib 0.042 | gandotinib 0 | tozasertib -0.027 | [4] -0.002 | doramapimod -0.02 | ispinesib 0.045

FDFT1 (UniProt P37268)
inactive: [1] -0.009 | crizotinib 0.105 | [2] -0.032 | [3] -0.065 | gandotinib 0.061 | [4] 0.174 | doramapimod 0.02 | ispinesib 0.077
active: duvelisib 0.32

FBXO6 (UniProt Q9NRD1)
inactive: [1] 0.035 | [2] 0.052 | [3] -0.082 | gandotinib 0.088 | [4] 0.036 | doramapimod -0.049
active: crizotinib 0.475 | ispinesib 0.39

FBXO22 (UniProt Q8NEZ5)
inactive: [1] 0 | crizotinib 0.089 | [2] 0.023 | [3] -0.061 | duvelisib 0.047 | gandotinib -0.071 | tozasertib 0.014 | [4] -0.021 | doramapimod -0.074 | ispinesib 0.044

FBXO38 (UniProt Q6PIJ6)
inactive: [1] 0.13 | crizotinib 0.062 | [2] 0.041 | [3] 0.056 | duvelisib -0.103 | tozasertib -0.059 | [4] 0.169 | doramapimod -0.044 | ispinesib 0.071

FBXO7 (UniProt Q9Y3I1)
inactive: [1] 0.038 | crizotinib 0.041 | [2] 0.061 | [3] -0.023 | gandotinib -0.194 | [4] 0.083 | doramapimod -0.029 | ispinesib 0.098

FLT4 (UniProt P35916)
inactive: [1] 0.05 | crizotinib 0.062 | [2] 0.427 | [3] -0.06 | duvelisib 0.087 | gandotinib -0.001 | tozasertib 0.029 | [4] 0.003 | doramapimod -0.082 | ispinesib -0.102

FBLN1 (UniProt P23142)
inactive: [1] -0.035 | crizotinib 0.07 | [2] 0.052 | [3] 0.129 | duvelisib -0.111 | gandotinib -0.065 | tozasertib -0.092 | [4] -0.192 | doramapimod -0.073 | ispinesib -0.096

FIS1 (UniProt Q9Y3D6)
active: [3] -0.286
inactive: [1] -0.017 | crizotinib 0.045 | [2] 0.037 | gandotinib 0.032 | [4] 0.071 | doramapimod 0.02 | ispinesib -0.007

FKBP3 (UniProt Q00688)
inactive: [1] -0.02 | crizotinib 0.017 | [2] 0.074 | [3] -0.076 | gandotinib -0.024 | [4] -0.006 | doramapimod 0 | ispinesib 0.019

FEN1 (UniProt P39748)
active: crizotinib -0.488
inactive: [1] 0.018 | [2] 0.367 | [3] -0.018 | gandotinib -0.162 | [4] 0.177 | doramapimod -0.065 | ispinesib -0.126

FMNL1 isoform 3 (UniProt O95466)
inactive: [1] 0.262 | [2] -0.079

FDXR isoform 7 (UniProt P22570)
inactive: [1] 0.038 | crizotinib -0.036 | [2] 0.117 | [3] -0.01 | gandotinib -0.064 | [4] 0.023 | doramapimod -0.013 | ispinesib -0.138

FAM241A (UniProt Q8N8J7)
inactive: [1] -0.235 | crizotinib 0.117 | [3] -0.007 | gandotinib -0.077 | [4] -0.034 | doramapimod -0.018 | ispinesib -0.069

FMC1 (UniProt Q96HJ9)
inactive: [1] 0.021 | crizotinib 0.195 | [2] -0.157 | [3] 0.082 | gandotinib 0.024 | [4] -0.018 | doramapimod -0.137 | ispinesib -0.314

FAM91A1 (UniProt Q658Y4)
inactive: [1] -0.11 | crizotinib -0.006 | [2] 0.192 | [3] -0.034 | gandotinib -0.08 | [4] -0.001 | doramapimod -0.012 | ispinesib 0.014

FAM89A (UniProt Q96GI7)
inactive: [1] -0.028 | crizotinib -0.115 | doramapimod 0.014 | ispinesib 0.047

FMR1 (UniProt Q06787)
inactive: [1] -0.067 | crizotinib 0.151 | [3] 0.199 | gandotinib 0.045 | doramapimod -0.065 | ispinesib -0.022

FCGR2A (UniProt P12318)
inactive: [1] -0.07 | crizotinib 0.035 | [2] 0.347 | duvelisib 0.287 | gandotinib 0.082 | tozasertib -0.012 | [4] 0.128 | doramapimod -0.135 | ispinesib 0.124

FBL (UniProt P22087)
inactive: [1] -0.054 | crizotinib 0.075 | [2] -0.266 | [3] 0.379 | gandotinib 0.124 | [4] -0.01 | doramapimod 0.279 | ispinesib 0.097

FNTA (UniProt P49354)
inactive: [1] 0.073 | crizotinib 0.069 | [2] 0.077 | [3] -0.005 | gandotinib 0.057 | [4] -0.014 | doramapimod -0.043 | ispinesib 0.06

FBRS (UniProt J3KNZ9)
inactive: [1] 0.016 | crizotinib -0.244 | [2] -0.45 | [3] 0.768 | gandotinib 0.124 | doramapimod 0.531

FAT1 (UniProt Q14517)
inactive: [1] 0.027 | crizotinib 0.061 | [2] -0.054 | [3] 0.144 | gandotinib 0.061 | [4] 0.009 | ispinesib -0.096
active: doramapimod -0.435

FECH isoform 2 (UniProt P22830)
inactive: [1] 0.527 | crizotinib 0.021 | [2] 0.161 | [3] -0.12 | gandotinib 0.178 | [4] 0.029 | doramapimod 0.071 | ispinesib -0.37

FKBP14 (UniProt Q9NWM8)
inactive: [1] 0.039 | [2] 0.016 | [3] 0.037 | duvelisib -0.089 | gandotinib 0.012 | tozasertib -0.021 | [4] 0.129 | ispinesib -0.02

FAM83D (UniProt Q9H4H8)
inactive: [1] -0.018 | crizotinib -0.061 | [2] 0.021 | [3] 0.014 | [4] 0.08 | doramapimod -0.009 | ispinesib 0.064
active: gandotinib -0.308
